## Percent effect of library compounds

Measurements from “University of Dundee, Small-Polar-MMV Screening Library” (2021), ChEMBL document CHEMBL3988442.

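Growth of Mycobacterium tuberculosis over 3 days (7H9 medium with glucose and tyloxapol); the read-out is not stated. Tested at 50 µM. Direction is inferred from retests: higher values go with more growth inhibition. About 69,000 compounds were tested under these conditions; 1.1% (about 760) showed 50% or more at least once.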

Each number is a percent effect as filed. The controls that fix the scale are not given in the record; negative values are as filed. This is an unselected part of the compounds tested. Two or more numbers in one place are separate tests of the same structure; such repeats can differ widely.

structure	Percent Effect
Cc1ccc(CN(C)CC2(O)CCCN(C)C2)o1 (stereo not given)	-3.347 and -12.44
CN1CCN(c2nc(O)c3c(-c4ccccn4)ccnc3n2)CC1	7.052 and -0.7485
O=C(c1ccc(F)cc1Cl)N1CCn2c(nnc2C(F)(F)F)C1	-6.382 and 1.672
Cc1noc(C)c1CN1CCc2ncnc(-c3ccncc3)c2CC1.O=C(O)C(F)(F)F.O=C(O)C(F)(F)F	-47.75
O=C(Cc1c[nH]c(=O)[nH]c1=O)N1CCC2(CCC(=O)N(C3CC3)C2)CC1	5.806
CCc1n[nH]c(C2CN(C(=O)c3cnc(C)cn3)CCO2)n1 (stereo not given)	10.4
Cc1nc(C)c(C(=O)N2CCCC(c3cnccn3)C2)s1 (stereo not given)	-4.494
CCN(CCOc1ccc(F)cc1)C(=O)c1ccncc1Cl	4.293
CC(O)CC(C)(C)CNC(=O)NCc1cccc(-n2ccnc2)c1 (stereo not given)	18.11
[H][C@@]12CCCN1C[C@@H](Cc1ccccc1)N(Cc1cnn(C=C)c1C)C2	10.04
CN(C)Cc1nn(C)c2c1CN(C(=O)c1ccc[nH]1)C2.O=C(O)C(F)(F)F	-5.147 and 8.048
COc1ccc(-c2cn(CCn3c(C)cc(C)nc3=O)nn2)cn1	-18.23
Cc1ccc(CN2CCN(C3CCCC3)CC2CCO)o1 (stereo not given)	0.9227
C1CCC(N2CCCN(c3nc(C4CC4)no3)CC2)C1	14.16 and 1.228
O=c1ccc2c(n1CCN1CCCC1)CCN(c1ncccn1)CC2	23.31
Cc1noc(C)c1S(=O)(=O)NC(=O)COc1cccc(C(C)C)c1	10.02
O=C(O)C(F)(F)F.c1csc(CN2CCc3ncnc(C4CCOC4)c3CC2)n1 (stereo not given)	-1.416 and 8.574
COC1COC2(CCN(Cc3ccccc3Cl)CC2)C1.O=C(O)C(F)(F)F (stereo not given)	3.981
CC(=O)N1CCCN(C(=O)c2ccc(Sc3ccccn3)cc2)CC1	4.332 and -5.11
COc1ccc(C2Nc3cc(Cl)ccc3C3=NCCN32)cc1O (stereo not given)	17.77
COCCO[C@H]1CCN(c2ccc(C)nn2)[C@H]1Cc1cnn(C)c1	12.77
CC(=O)N[C@@H](CC(C)C)C(=O)N1CCC(n2cc(CO)nn2)CC1	-7.301
Cc1cc(Cl)cc(C)c1CNC1CCN(CC(=O)N(C)C)CC1	0.6031
O=C(NCC1COCc2c(-c3cccnc3)nnn2C1)c1cccs1.O=C(O)C(F)(F)F (stereo not given)	-5.949
O=C(NCC1CCS(=O)(=O)C1)c1ccco1 (stereo not given)	-15.56
CCN1CCN(S(=O)(=O)c2cn(C(C)C)cn2)c2ccccc21	22.08 and -2.696
Cc1cccc(-c2nc(CNC3CCc4nc(C)nn4C3)no2)c1 (stereo not given)	20.13
CCn1cnnc1C1CCCN(C(=O)COc2ccc(Cl)cc2)C1 (stereo not given)	-13.24
Cc1ccc2c(c1)C(=O)NCC1(CCN(C(=O)c3sccc3C)CC1)O2	19.46
O=C1NC2(CCCN(C(=O)CCn3cncn3)C2)Oc2ccccc21 (stereo not given)	-14.18
O=C1OCCC1N1CCN(C(=O)Cc2ccccc2Cl)CC1 (stereo not given)	-1.464
c1ccc(Cc2noc(CN3CCCCC3C3OCCO3)n2)cc1 (stereo not given)	0.1891
[H][C@@]12CS(=O)(=O)C[C@]1([H])N(C(=O)c1cccs1)CCN2Cc1[nH]cnc1C	-28.16
O=C(CN1CCCc2c(F)cc(Br)cc21)N1CCN(C(=O)C2CC2)CC1	7.112
Cc1cc(Br)ccc1NCC(=O)Nc1cc(C(C)(C)C)no1	20.16 and 12.34
[H][C@]12CC[C@](O)(CC1)C(CO)N2Cc1ccco1 (stereo not given in full)	6.964
CCNc1ncc(C)c(-c2cnn(C)c2)n1	-8.267 and -10.02
CCn1ncc2c1C(COC)CN(c1ncc(F)cn1)C2.O=C(O)C(F)(F)F.O=C(O)C(F)(F)F (stereo not given)	-9.96
O=C(O)C(F)(F)F.O=C(O)C(F)(F)F.[H][C@@]12COC[C@]1(CN1CCOCC1)CN(S(=O)(=O)c1cccnc1)C2	-36.45 and -1.451
CCc1nc(CN2CCCN(Cc3noc(C4CC4)n3)CC2)cs1	46.46
NC(=O)C1CCN(C(=O)c2cccc(CN3CCOCC3)c2)CC1	-7.428 and -29.9
[H][C@@]12CCN(C[C@@H]1CN1CCC(C)CC1)[C@@H](CNC(=O)Nc1ccsc1)C2	1.032 and -17.11
CCc1c(C)nc(-n2nc(-c3cccs3)cc2N)[nH]c1=O	62.91
CCC(C)(NCC(=O)NC(=O)NC)c1nccs1 (stereo not given)	-7.247
CC(C)=CCN(C)C1CCCN(Cc2noc(C)n2)C1 (stereo not given)	-15.47
CC(c1nc(C2CC2)no1)N(C)Cc1ccc(C#N)cc1 (stereo not given)	27.51
Cc1ccc(CNC(=O)CN2CCCC(Cn3cncn3)C2)cc1 (stereo not given)	-8.77
Cc1ccc(CN(Cc2ccncc2)C2CCN(C)CC2)s1	102.1 and -10.55
CCc1nc(CN2CCCN(C(=O)c3cccn3C)CC2)cs1	18.54 and 2.3
CC(=O)Nc1nc(C2CCN(C(C)C)CC2)cs1	6.217
O=C(O)C(F)(F)F.[H][C@@]12COC[C@]1([H])[C@@H](OCC(=O)N(C)C)CN2Cc1ccc2c(c1)OCO2	30.03
CN1CCOC(CNCc2cccc(OC(F)(F)F)c2)C1 (stereo not given)	29.76 and 9.29
OCC(O)CSCc1nnc(-c2cccc(F)c2)o1 (stereo not given)	-1.053
Cc1cccc(-c2ccc(C(=O)N3CCSCC3)c(=O)[nH]2)c1	27 and 73.18
Cc1ccccc1-c1cc(NC(=O)NC2CCC(O)CC2)n(CCO)n1 (stereo not given)	-18.49
O=C(NCc1cc(C2CC2)n(C2CCCC2)n1)C1CC1	-4.597
Cc1cc(C(=O)N2CCCC2Cn2nc(C)cc2C)on1 (stereo not given)	-1.682
O=C(Cc1ccc(CO)cc1)N1CCN(c2ccccc2Cl)C(=O)C1	9.396 and -9.205
CCOC(C)c1nc(Cn2cc(C)cn2)cs1 (stereo not given)	-12.57 and 7.485
CC(=O)N(Cc1ncc(C)o1)C1CCN(Cc2ccccc2C#N)C1 (stereo not given)	-5.021
COc1ccc(CN2C[C@@H](CN(C)C)[C@@H](CO)C2)cc1CN1CCCC1	2.573

Some entries from above, unchanged:

With CCn1ncc2c1C(COC)CN(c1ncc(F)cn1)C2.O=C(O)C(F)(F)F.O=C(O)C(F)(F)F (stereo not given) the screen gave -9.96%.
With O=C(Cc1ccc(CO)cc1)N1CCN(c2ccccc2Cl)C(=O)C1 the screen gave 9.396% and -9.205%.
With Cc1ccc(CN(C)CC2(O)CCCN(C)C2)o1 (stereo not given) the screen gave -3.347% and -12.44%.
With O=C(CN1CCCc2c(F)cc(Br)cc21)N1CCN(C(=O)C2CC2)CC1 the screen gave 7.112%.